PubChem BioAssay AID1259308 | NCATS | 2017

- Assay: 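Candidate targets for better recombinant protein yield in mammalian cells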 (primary screen)
- Cell system: human HEK293 embryonic kidney cells stably expressing firefly luciferase (HEK-CMV-Luc2-Hygro)
- Knock-down reagent: single siRNA against human genes, 0.8 pmol siRNA per well
- Timing: 72 h
- Detection: 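Luciferase light (ONE-Glo) measured on one replicate plate set and viability (CellTiter-Glo) on the other, scaled to a negative control siRNA, with robust z-scores and luciferase per cell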
- Reading the numbers: total luciferase, z-score and total luciferase, % of control: higher = more reporter protein produced
- Call rule: 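An siRNA counts as active if its total luciferase robust z-score exceeds 3; genes with two or more such siRNAs out of three were retested with fresh siRNAs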
- Meaning of the calls: active = raised luciferase; inactive = no rise
Here is one part, drawn at random, of about 59,000 reagents. About 1,510 of all reagents (2.6%) were called active. 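Calls use total luciferase alone and ignore viability, so some active siRNAs may act by altering cell number.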 Entries without a mark were called inactive. The numbers tell different reagents against one gene apart. Further read-outs or replicates are left out here.

CTNNB1 (catenin beta 1) #1 gave total luciferase, z-score -0.398; total luciferase, % of control 74.
Against CTNNB1 (catenin beta 1) #2 the deposit lists total luciferase, z-score 0.613; total luciferase, % of control 94.1.
CTNNB1 (catenin beta 1) #3 showed total luciferase, z-score -0.444; total luciferase, % of control 73.1.
Against TRAF3IP3 (TRAF3 interacting protein 3) #1, the entry reads total luciferase, z-score -0.189; total luciferase, % of control 78.1.
TRAF3IP3 (TRAF3 interacting protein 3) #2 scored total luciferase, z-score 2.66; total luciferase, % of control 135.
With knock-down of TRAF3IP3 (TRAF3 interacting protein 3) #3 the results were total luciferase, z-score -0.594; total luciferase, % of control 70.1.
Knock-down of EIF2AK2 (eukaryotic translation initiation factor 2 alpha kinase 2) #1 resulted in: total luciferase, z-score -0.502; total luciferase, % of control 71.9.
For EIF2AK2 (eukaryotic translation initiation factor 2 alpha kinase 2) #2 the deposit lists total luciferase, z-score -0.557; total luciferase, % of control 70.8.
For EIF2AK2 (eukaryotic translation initiation factor 2 alpha kinase 2) #3 the deposit lists total luciferase, z-score -0.612; total luciferase, % of control 69.7.
Silencing of LINC02591 (long independently transcribed non-coding RNA 2591) #1 came out at: total luciferase, z-score 0.676; total luciferase, % of control 95.3.
Knock-down of LINC02591 (long independently transcribed non-coding RNA 2591) #2 gave: total luciferase, z-score 0.53; total luciferase, % of control 92.4.
Silencing of LINC02591 (long independently transcribed non-coding RNA 2591) #3 came out at: total luciferase, z-score -0.911; total luciferase, % of control 63.8.

Already shown: an excerpt of the list.
LINC02591 (long independently transcribed non-coding RNA 2591) #2 — total luciferase, z-score: 0.53; total luciferase, % of control: 92.4
LINC02591 (long independently transcribed non-coding RNA 2591) #3 — total luciferase, z-score: -0.911; total luciferase, % of control: 63.8
